{"source": "PubChem BioAssay AID504804 (Drosophila RNAi Screening Center, 2011)", "aim": "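dsRNAs that improve Kc cell survival under doxorubicin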 (primary screen)", "system": "Drosophila Kc cells", "reagents": "long dsRNA against Drosophila genes, 0.5 µg dsRNA per well", "timing": "96 h (48 h knock-down, then 48 h drug)", "conditions": "doxorubicin 5 µg/ml for 48 h, added 48 h after dsRNA", "measurement": "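Luminescent ATP counts per replicate, not normalised, reflecting viable cells after 48 h dsRNA knock-down followed by 48 h of 5 µg/ml doxorubicin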", "reading the numbers": "raw ATP luminescence: higher = more viable cells, protection from doxorubicin", "call rule": "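z-score of 2 or more over plate mean in both duplicates, retained only when retests and separate dsRNAs confirm the protection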", "note": "The deposit covers about 19,000 reagents; shown is a random part of those with a known target gene and a result. In the full data, 47 (0.25%) were called active. 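Signals are raw, not normalised; exact z-scores behind calls not deposited; actives needed confirmation, so some wells reaching 2 SD are inactive.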 Entries without a mark were called inactive. Reagent sequences are not shown."}
{"target gene": "CG12713", "raw ATP luminescence, replicate 1": 38183, "raw ATP luminescence, replicate 2": 52867}
{"target gene": "tex", "raw ATP luminescence, replicate 1": 39743, "raw ATP luminescence, replicate 2": 38427}
{"target gene": "CG34214", "raw ATP luminescence, replicate 1": 62690, "raw ATP luminescence, replicate 2": 53370}
{"target gene": "CG14641", "raw ATP luminescence, replicate 1": 21207, "raw ATP luminescence, replicate 2": 26307}
{"target gene": "CG43322", "raw ATP luminescence, replicate 1": 30567, "raw ATP luminescence, replicate 2": 34523}
{"target gene": "pic", "raw ATP luminescence, replicate 1": 38760, "raw ATP luminescence, replicate 2": 22330}
{"target gene": "COX7AL", "raw ATP luminescence, replicate 1": 73060, "raw ATP luminescence, replicate 2": 63143}
{"target gene": "CG5592", "raw ATP luminescence, replicate 1": 62420, "raw ATP luminescence, replicate 2": 70307}
{"target gene": "CG10943", "raw ATP luminescence, replicate 1": 91930, "raw ATP luminescence, replicate 2": 82340}
{"target gene": "Mink", "raw ATP luminescence, replicate 1": 38117, "raw ATP luminescence, replicate 2": 41880}
{"target gene": "Galt", "raw ATP luminescence, replicate 1": 1.07e5, "raw ATP luminescence, replicate 2": 80347}
{"target gene": "CG3306", "raw ATP luminescence, replicate 1": 34600, "raw ATP luminescence, replicate 2": 33647}

Reprinted from the listing, 2 entries:
{"target gene": "CG12713", "raw ATP luminescence, replicate 1": 38183, "raw ATP luminescence, replicate 2": 52867}
{"target gene": "tex", "raw ATP luminescence, replicate 1": 39743, "raw ATP luminescence, replicate 2": 38427}
